{"source": "PubChem BioAssay AID504774 | Drosophila RNAi Screening Center, 2011", "assay": "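Knock-downs that shift viability of MMS-exposed cells relative to untreated ones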 (primary screen)", "cells": "Drosophila Kc167 cells", "reagent": "long dsRNA against Drosophila genes, about 0.25 µg dsRNA per well", "time to read-out": "about 6 days: 3 days knock-down, then 3 days with or without MMS", "treatment": "methyl methanesulphonate 0.004% (w/v) for 3 days after knock-down", "measured": "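Viability in wells given MMS, read as ATP luminescence, normalised by quantiles plate by plate and averaged across replicates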", "direction": "mean viability with MMS: higher = more surviving cells after MMS", "note": "The deposit covers about 23,000 reagents; below is an unselected part of those with a known target gene and a result. 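Values are quantile-normalised luminescence on an arbitrary scale; higher means more cells surviving MMS.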 The numbers tell different reagents against one gene apart. Names joined by + are all predicted targets of the reagent. Further read-outs or replicates are left out here. No sequences are given here."}
{"Target gene": "Grl65a (Gustatory receptor-like 65a)", "reagent": 1, "mean viability with MMS": 3.69e6}
{"Target gene": "CG13223", "reagent": 1, "mean viability with MMS": 3.51e6}
{"Target gene": "CG15153", "reagent": 1, "mean viability with MMS": 3.40e6}
{"Target gene": "jef (jet fuel)", "reagent": 1, "mean viability with MMS": 3.83e6}
{"Target gene": "hng2 (hinge2)", "reagent": 1, "mean viability with MMS": 3.42e6}
{"Target gene": "Wee1 (Wee1 kinase)", "reagent": 1, "mean viability with MMS": 3.61e6}
{"Target gene": "Wee1 (Wee1 kinase)", "reagent": 2, "mean viability with MMS": 3.70e6}
{"Target gene": "CG8086", "reagent": 1, "mean viability with MMS": 3.53e6}
{"Target gene": "CG8086", "reagent": 2, "mean viability with MMS": 3.68e6}
{"Target gene": "CG16894", "reagent": 1, "mean viability with MMS": 3.74e6}
{"Target gene": "CG16894", "reagent": 2, "mean viability with MMS": 3.29e6}
{"Target gene": "CG12768", "reagent": 1, "mean viability with MMS": 3.29e6}
{"Target gene": "CG12768", "reagent": 2, "mean viability with MMS": 3.74e6}
{"Target gene": "Cth (Cystathionine gamma-lyase)", "reagent": 1, "mean viability with MMS": 3.55e6}
{"Target gene": "CG42376 + cin", "reagent": 1, "mean viability with MMS": 3.55e6}
{"Target gene": "CG2975", "reagent": 1, "mean viability with MMS": 3.41e6}
{"Target gene": "MICAL-like", "reagent": 1, "mean viability with MMS": 3.54e6}
{"Target gene": "Dhc98D (Dynein heavy chain at 89D)", "reagent": 1, "mean viability with MMS": 3.48e6}
{"Target gene": "CG42514", "reagent": 1, "mean viability with MMS": 3.43e6}
{"Target gene": "Polr2E (RNA polymerase II, I and III subunit E)", "reagent": 1, "mean viability with MMS": 2.66e6}
{"Target gene": "CG33722 + CG18749", "reagent": 1, "mean viability with MMS": 3.69e6}
{"Target gene": "CG33722 + CG18749", "reagent": 2, "mean viability with MMS": 3.53e6}
{"Target gene": "CG13123", "reagent": 1, "mean viability with MMS": 3.39e6}
{"Target gene": "BOD1 (Biorientation Defective 1)", "reagent": 1, "mean viability with MMS": 3.48e6}
{"Target gene": "Nhe3 (Na[+]/H[+] hydrogen exchanger 3)", "reagent": 1, "mean viability with MMS": 3.47e6}
{"Target gene": "mIF3 (mitochondrial translation initiation factor 3)", "reagent": 1, "mean viability with MMS": 3.58e6}
{"Target gene": "POSH (Plenty of SH3s)", "reagent": 1, "mean viability with MMS": 3.70e6}
{"Target gene": "Lrp4 (LDL receptor related protein 4)", "reagent": 1, "mean viability with MMS": 3.59e6}
{"Target gene": "grh (grainy head)", "reagent": 1, "mean viability with MMS": 3.58e6}
{"Target gene": "grh (grainy head)", "reagent": 2, "mean viability with MMS": 3.22e6}
{"Target gene": "grh (grainy head)", "reagent": 3, "mean viability with MMS": 3.69e6}
{"Target gene": "grh (grainy head)", "reagent": 4, "mean viability with MMS": 3.62e6}
{"Target gene": "CG15225", "reagent": 1, "mean viability with MMS": 3.54e6}
{"Target gene": "CG15225", "reagent": 2, "mean viability with MMS": 3.67e6}
{"Target gene": "DNAlig1 (DNA ligase 1)", "reagent": 1, "mean viability with MMS": 3.26e6}
{"Target gene": "Lon (Lon protease)", "reagent": 1, "mean viability with MMS": 3.46e6}
{"Target gene": "CG13801", "reagent": 1, "mean viability with MMS": 3.58e6}
{"Target gene": "CG16798", "reagent": 1, "mean viability with MMS": 3.59e6}
{"Target gene": "CG42703", "reagent": 1, "mean viability with MMS": 3.40e6}
{"Target gene": "Cyp317a1 (Cytochrome P450 317a1)", "reagent": 1, "mean viability with MMS": 3.50e6}
{"Target gene": "Obp56d (Odorant-binding protein 56d)", "reagent": 1, "mean viability with MMS": 3.49e6}
{"Target gene": "Pde9 (Phosphodiesterase 9)", "reagent": 1, "mean viability with MMS": 3.72e6}
{"Target gene": "Pde9 (Phosphodiesterase 9)", "reagent": 2, "mean viability with MMS": 3.48e6}
{"Target gene": "Pde9 (Phosphodiesterase 9)", "reagent": 3, "mean viability with MMS": 3.62e6}
{"Target gene": "Pde9 (Phosphodiesterase 9)", "reagent": 4, "mean viability with MMS": 3.77e6}
